In PubChem BioAssay AID504842 (National Center for Advancing Translational Sciences (NCATS), 2011):
The whole screen tested about 330,000 compounds, of which about 100 (0.03%) were called active. Inconclusive results, whose numbers are uncertain, are shown with a selection of clear calls. The call rests on the fitted dose curve; in most records, active means well fitted inhibition curve with a large enough effect; inconclusive means small, poorly fitted or top-dose-only effect; inactive means flat fitted curve, though single readings scatter. A potency beside an inconclusive call is a rough fit, not a confirmed value.

Test system: Chaperonin Mm-Cpn (Methanococcus maripaludis)
Assay: Inhibitors of TCP-1 ring complex (TRiC) of Methanococcus maripaludis (MmCpn): qHTS; further: nearly all actives have a fitted effect of over 80% in size;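 on potency: enzyme at 25 nM with ATP substrate at 10 µM during the reaction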
Details: purified Mm-Cpn ATPase, ADP Transcreener TR-FRET
How it was run: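 Reaction buffer contained 30 mM Tris pH 7.4, 100 mM KCl, 5 mM MgCl2 and 1 mM DTT. Mm-CPN (25 nM final) hydrolysed 10 uM ATP over 30 min at 37°C; ADP was read by HTRF.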
Potency means the concentration at half of the fitted maximal effect.

Row | Structure (SMILES) | Potency
1 | c1ccc2c(c1)NC1(CCCCC1)n1c-2nc2ccccc21 | inactive
2 | N#C/C(=C\c1ccc2c(c1)OCCO2)C(=O)Nc1ccc(C(=O)O)cc1 | inconclusive: 20 µM [inhibitor, single point]
3 | O=S(=O)(Nc1cccc(-c2cn3cccnc3n2)c1)c1ccc(Cl)cc1 | inconclusive: 8.91 µM [inhibitor, single point]
4 | CC(=O)c1c(C)[nH]c(C(=O)OCC(=O)NCc2ccc(Cl)cc2)c1C | inconclusive: 3550 µM [inhibitor, partial curve, poor fit]
5 | O=S(=O)(/N=C(\c1ccccc1F)N1CCCCC1)c1ccccc1 | inconclusive: 28.2 µM [inhibitor, single point]
6 | C=CCOc1ccc(C=Nc2ccc(Cl)cc2)c(O)c1 | inconclusive: 89.1 µM [inhibitor, single point]
7 | COc1ccc(-c2nnc(SCC(=O)NCCC(C)C)nc2-c2ccc(OC)c(OC)c2)cc1OC | inconclusive: 22.4 µM [inhibitor, single point]
8 | CCOC(=O)N1CCN(C(=O)C2CCCN(S(=O)(=O)c3cccnc3)C2)CC1 (stereo not given) | inconclusive: 10 µM [inhibitor, single point]
9 | CCOc1ccc2cc(S(=O)(=O)N3CCOCC3)ccc2c1 | inconclusive: 100 µM [inhibitor, single point]
10 | COc1ccc2sc(-c3ccc(SC)cc3)c(-c3ccc(O)cc3)c2c1 | inconclusive: 200 µM [inhibitor, partial curve, poor fit]
11 | O=C(Cn1c(=O)oc2cccnc21)Nc1ccccc1Oc1ccc(Cl)cc1Cl | inconclusive: 22.4 µM [inhibitor, single point]
12 | Fc1c(F)c(F)c(/C=N/NC(=S)Nc2cccnc2)c(F)c1F | inconclusive: 5.62 µM [inhibitor, single point]
13 | COc1ccc(-c2sc3ccc(OC)cc3c2-c2ccc(OCCN3CCOCC3)cc2)cc1 | inconclusive: 89.1 µM [inhibitor, partial curve, poor fit]
14 | COc1ccc(/C=C2\SC(=O)N(CC(=O)Nc3ccc(O)cc3)C2=O)cc1OC | inconclusive: 100 µM [inhibitor, single point]
15 | Cc1ccc(NC(=O)c2ccccn2)cc1S(=O)(=O)N1CCOCC1 | inconclusive: 224 µM [inhibitor, partial curve, poor fit]
16 | CC(=O)c1sc(NC(=O)c2ccccc2F)nc1-c1ccccc1 | inconclusive: 100 µM [inhibitor, single point]
17 | O=C(Nc1ccon1)c1cccc(C(F)(F)F)c1 | inactive
18 | Brc1ccc(-c2csc(-c3c[nH]c4ccccc34)n2)cc1 | inconclusive: 11.2 µM [inhibitor, single point]
19 | O=C(N/N=C/c1cc([N+](=O)[O-])ccc1O)Nc1ccccc1 | inactive
20 | CCOC(=O)N1CCC(NC(=O)c2cnn3c(C(F)(F)F)cc(-c4cccc(OC)c4)nc23)CC1 | inconclusive: 447 µM [inhibitor, partial curve, poor fit]

Arranged by length of the SMILES (descending): three of the compounds above.
Row | Structure (SMILES) | Potency
20 | CCOC(=O)N1CCC(NC(=O)c2cnn3c(C(F)(F)F)cc(-c4cccc(OC)c4)nc23)CC1 | inconclusive: 447 µM [inhibitor, partial curve, poor fit]
19 | O=C(N/N=C/c1cc([N+](=O)[O-])ccc1O)Nc1ccccc1 | inactive
9 | CCOc1ccc2cc(S(=O)(=O)N3CCOCC3)ccc2c1 | inconclusive: 100 µM [inhibitor, single point]

Later entries:

Row | Structure (SMILES) | Potency
21 | CC(=O)c1cccc(S(=O)(=O)Nc2ccc3nc(C)sc3c2)c1 | inconclusive: 14.1 µM [inhibitor, single point]
22 | C=CCC[C@@H](Cc1ccc(F)cc1)C(=O)OC[C@H]1CCCN1C(=O)[C@@H](CC=C)CC(=O)N[C@H](CO)Cc1ccccc1 | inconclusive: 89.1 µM [inhibitor, single point]
23 | CCCCN(CCCC)c1nc2ccccc2nc1NS(=O)(=O)c1ccc(NC(C)=O)cc1 | inconclusive: 56.2 µM [inhibitor, single point]
24 | CCOc1ccc(-c2nnc3ccc(SCc4ccc(C(=O)OC)o4)nn23)cc1 | inconclusive: 100 µM [inhibitor, single point]
25 | CCOC(=O)Cc1nnc(NC(=O)c2ccccc2OC)s1 | inconclusive: 501 µM [inhibitor, partial curve, poor fit]
26 | Cc1ccc(S(=O)(=O)N2CCCN(C(=O)OC(C)(C)C)CC2)cc1 | inconclusive: 44.7 µM [inhibitor, single point]
27 | OCC1CCCCN1CC(O)COC(c1ccc(F)cc1)c1ccc(F)cc1 (stereo not given) | inconclusive: 89.1 µM [inhibitor, single point]
28 | O=S(=O)(Nc1ccc2c(c1)OCO2)c1ccccc1 | inactive
29 | CC(C)(CN1CCc2ccccc2C1)NS(=O)(=O)c1ccccc1 | inconclusive: 22.4 µM [inhibitor, single point]
30 | CCc1sc(C(=O)Nc2ccsc2C(=O)OC)cc1Br | inconclusive: 12.6 µM [inhibitor, single point]
31 | Cc1cc(Cl)ccc1OCC(=O)Nc1ccccc1N1CCOCC1 | inactive
32 | O=C(COC(=O)/C=C/c1ccc(Br)o1)Nc1ccc2[nH]c(=O)[nH]c2c1 | inactive
33 | CSc1nc2cc(F)c(F)cc2n1C | inconclusive: 50.1 µM [inhibitor, single point]
34 | COc1ccc2ncc(S(=O)(=O)c3ccccc3)c(N3CCN(c4ccccc4)CC3)c2c1 | inconclusive: 79.4 µM [inhibitor, single point]
35 | NN1C(=O)/C(=C2/Sc3ccccc3N2CCCS(=O)(=O)O)SC1=S | inconclusive: 251 µM [inhibitor, partial curve, poor fit]
36 | COc1ccc(CSCC(=O)NN=C2CCN(C)CC2)cc1 | inconclusive: 12.6 µM [inhibitor, single point]
37 | CCOC(=O)C1C(O)=CC(=O)CC1c1ccccc1 (stereo not given) | inactive
38 | CC(=O)c1cccc(NC(=O)CCc2nnc3ccc(NCc4ccc5c(c4)OCO5)nn23)c1 | inconclusive: 158 µM [inhibitor, partial curve]
39 | C#CCOCCOCCOCCNc1nc(N2CCN(C(=O)Cn3cc(CCCN=C(N)N)nn3)CC2)nc(N2CCN(C(=O)[C@H]([C@@H](C)CC)n3cc(CCC(=O)O)nn3)CC2)n1 | inconclusive: 12.6 µM [inhibitor, single point]
40 | CCn1c(=O)n(CC)c2cc(N3CCCC3)c(NC(=O)c3c(F)cccc3F)cc21 | inactive
